Patent publication US20120034228A1
No constants are given. Whether binding was seen depends on the method and setting.

Biological target: 1-27 CD3-EpCAM comprising the swine 27 mer (cynomolgus)
Experiment: FACS on transfected 293-HEK cells

binding: no binding
B1: E2M HLP (scFv)
scFv: EVQLLESGGGLVQPGGSLKLSCAASGFTFNGYAMNWVRQAPGKGLEWVARIRSKYNNYATYYADSVKERFTISRDDSKNTAYLQMNNLKTEDTAVYYCVRHRNFGNSYLSWFAYWGQGTLVTVSSGGGGSGGGGSGGGGSELVVTQEPSLTVSPGGTVTLTCRSSTGAVTSGYYPNWVQQKPGQAPRGLIGATDMRPSGTPARFSGSLLGGKAALTLSGVQPEDEAEYYCALWYSNRWVFGGGTKLTVL
